The results in this text go back to publication PMC4118132.

Sequences of proteins named here, by UniProt entry; tags and fusion partners are left off.
UniProt Q99613: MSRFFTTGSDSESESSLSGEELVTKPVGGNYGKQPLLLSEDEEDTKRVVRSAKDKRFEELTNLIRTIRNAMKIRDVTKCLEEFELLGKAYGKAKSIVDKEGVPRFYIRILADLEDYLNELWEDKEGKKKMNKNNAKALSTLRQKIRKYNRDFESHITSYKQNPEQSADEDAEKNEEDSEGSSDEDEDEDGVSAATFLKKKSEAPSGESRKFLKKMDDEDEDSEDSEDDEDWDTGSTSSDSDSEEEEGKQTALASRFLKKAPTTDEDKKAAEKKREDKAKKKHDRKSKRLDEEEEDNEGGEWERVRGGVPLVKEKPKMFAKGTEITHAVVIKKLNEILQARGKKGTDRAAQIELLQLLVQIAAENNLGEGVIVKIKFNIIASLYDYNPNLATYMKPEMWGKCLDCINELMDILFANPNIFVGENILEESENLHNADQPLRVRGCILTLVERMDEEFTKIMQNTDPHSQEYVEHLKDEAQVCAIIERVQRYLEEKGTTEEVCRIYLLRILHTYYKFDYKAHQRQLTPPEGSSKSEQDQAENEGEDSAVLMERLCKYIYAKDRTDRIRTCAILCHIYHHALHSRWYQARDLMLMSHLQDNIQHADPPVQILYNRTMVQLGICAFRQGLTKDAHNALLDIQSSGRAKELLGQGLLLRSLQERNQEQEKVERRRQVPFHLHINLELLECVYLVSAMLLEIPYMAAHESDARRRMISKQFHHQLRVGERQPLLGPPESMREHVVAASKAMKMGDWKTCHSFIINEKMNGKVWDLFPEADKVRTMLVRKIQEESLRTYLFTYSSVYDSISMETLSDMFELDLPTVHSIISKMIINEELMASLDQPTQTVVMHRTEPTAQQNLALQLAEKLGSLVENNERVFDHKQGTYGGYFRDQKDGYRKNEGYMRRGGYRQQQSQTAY
UniProt O15371: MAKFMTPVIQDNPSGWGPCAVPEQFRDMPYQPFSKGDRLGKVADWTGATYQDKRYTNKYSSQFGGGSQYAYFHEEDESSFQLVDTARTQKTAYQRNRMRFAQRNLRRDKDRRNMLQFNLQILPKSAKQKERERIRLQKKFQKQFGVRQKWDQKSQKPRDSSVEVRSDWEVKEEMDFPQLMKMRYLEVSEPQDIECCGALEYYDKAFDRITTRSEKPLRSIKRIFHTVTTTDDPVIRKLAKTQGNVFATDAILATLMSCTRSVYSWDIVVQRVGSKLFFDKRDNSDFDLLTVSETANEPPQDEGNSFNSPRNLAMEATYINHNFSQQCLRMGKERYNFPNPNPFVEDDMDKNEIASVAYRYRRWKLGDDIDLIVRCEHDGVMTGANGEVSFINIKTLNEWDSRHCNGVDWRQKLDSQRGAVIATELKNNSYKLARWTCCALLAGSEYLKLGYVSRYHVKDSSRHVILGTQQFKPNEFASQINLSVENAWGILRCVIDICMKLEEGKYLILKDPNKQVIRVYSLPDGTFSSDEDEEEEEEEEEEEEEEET
UniProt P60228: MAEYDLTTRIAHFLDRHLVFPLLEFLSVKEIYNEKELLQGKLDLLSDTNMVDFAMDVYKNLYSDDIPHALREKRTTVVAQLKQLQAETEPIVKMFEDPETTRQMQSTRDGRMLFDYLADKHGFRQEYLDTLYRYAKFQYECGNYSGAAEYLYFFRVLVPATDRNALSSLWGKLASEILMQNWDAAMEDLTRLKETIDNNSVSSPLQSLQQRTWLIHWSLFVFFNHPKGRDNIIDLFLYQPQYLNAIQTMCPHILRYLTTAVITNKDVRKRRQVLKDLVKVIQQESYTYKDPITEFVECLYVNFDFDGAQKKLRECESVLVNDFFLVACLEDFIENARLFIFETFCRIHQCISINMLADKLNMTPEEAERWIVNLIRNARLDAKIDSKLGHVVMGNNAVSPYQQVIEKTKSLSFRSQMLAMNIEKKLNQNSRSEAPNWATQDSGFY
UniProt O00303: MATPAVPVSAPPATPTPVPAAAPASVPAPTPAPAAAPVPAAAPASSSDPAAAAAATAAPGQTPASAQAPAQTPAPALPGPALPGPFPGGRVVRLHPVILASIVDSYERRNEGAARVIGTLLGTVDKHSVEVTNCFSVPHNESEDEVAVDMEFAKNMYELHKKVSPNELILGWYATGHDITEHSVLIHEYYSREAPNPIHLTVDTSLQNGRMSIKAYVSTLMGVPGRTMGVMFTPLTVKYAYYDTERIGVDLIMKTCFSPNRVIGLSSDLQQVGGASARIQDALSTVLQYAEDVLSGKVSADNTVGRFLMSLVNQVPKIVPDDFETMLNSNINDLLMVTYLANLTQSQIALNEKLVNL
UniProt O75821: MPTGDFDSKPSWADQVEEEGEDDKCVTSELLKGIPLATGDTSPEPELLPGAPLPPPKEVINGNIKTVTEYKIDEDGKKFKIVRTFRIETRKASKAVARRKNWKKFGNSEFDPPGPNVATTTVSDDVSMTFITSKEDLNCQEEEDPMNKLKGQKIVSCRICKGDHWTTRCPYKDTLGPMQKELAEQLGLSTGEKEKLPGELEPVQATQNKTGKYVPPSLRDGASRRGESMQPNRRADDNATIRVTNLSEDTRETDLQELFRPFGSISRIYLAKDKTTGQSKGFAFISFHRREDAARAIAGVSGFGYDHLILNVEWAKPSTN
UniProt O15372: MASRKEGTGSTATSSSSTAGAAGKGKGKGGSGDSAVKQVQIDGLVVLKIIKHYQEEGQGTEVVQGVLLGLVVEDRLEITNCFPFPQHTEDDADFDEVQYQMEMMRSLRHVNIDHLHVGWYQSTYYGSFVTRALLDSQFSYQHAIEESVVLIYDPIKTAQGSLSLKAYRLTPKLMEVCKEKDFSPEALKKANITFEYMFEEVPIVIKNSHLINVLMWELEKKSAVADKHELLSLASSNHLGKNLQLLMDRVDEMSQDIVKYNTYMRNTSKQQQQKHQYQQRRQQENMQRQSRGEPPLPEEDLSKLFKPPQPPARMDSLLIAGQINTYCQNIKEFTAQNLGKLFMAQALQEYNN
UniProt Q13347: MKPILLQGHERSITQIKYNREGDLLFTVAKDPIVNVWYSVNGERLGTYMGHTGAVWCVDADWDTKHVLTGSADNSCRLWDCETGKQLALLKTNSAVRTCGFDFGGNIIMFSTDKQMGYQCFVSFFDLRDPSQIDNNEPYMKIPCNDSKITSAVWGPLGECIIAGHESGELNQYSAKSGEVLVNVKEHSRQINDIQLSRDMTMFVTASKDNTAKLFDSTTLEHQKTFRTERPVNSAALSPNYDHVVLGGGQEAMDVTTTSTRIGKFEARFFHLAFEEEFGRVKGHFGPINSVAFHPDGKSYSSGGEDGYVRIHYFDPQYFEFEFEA
UniProt Q9UBQ5: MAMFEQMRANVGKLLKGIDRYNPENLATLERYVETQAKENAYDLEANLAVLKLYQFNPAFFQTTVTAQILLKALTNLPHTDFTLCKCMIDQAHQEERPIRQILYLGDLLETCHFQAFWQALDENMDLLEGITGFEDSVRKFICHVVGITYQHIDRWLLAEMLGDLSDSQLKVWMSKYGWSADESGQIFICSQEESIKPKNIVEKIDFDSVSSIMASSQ
UniProt Q9Y262: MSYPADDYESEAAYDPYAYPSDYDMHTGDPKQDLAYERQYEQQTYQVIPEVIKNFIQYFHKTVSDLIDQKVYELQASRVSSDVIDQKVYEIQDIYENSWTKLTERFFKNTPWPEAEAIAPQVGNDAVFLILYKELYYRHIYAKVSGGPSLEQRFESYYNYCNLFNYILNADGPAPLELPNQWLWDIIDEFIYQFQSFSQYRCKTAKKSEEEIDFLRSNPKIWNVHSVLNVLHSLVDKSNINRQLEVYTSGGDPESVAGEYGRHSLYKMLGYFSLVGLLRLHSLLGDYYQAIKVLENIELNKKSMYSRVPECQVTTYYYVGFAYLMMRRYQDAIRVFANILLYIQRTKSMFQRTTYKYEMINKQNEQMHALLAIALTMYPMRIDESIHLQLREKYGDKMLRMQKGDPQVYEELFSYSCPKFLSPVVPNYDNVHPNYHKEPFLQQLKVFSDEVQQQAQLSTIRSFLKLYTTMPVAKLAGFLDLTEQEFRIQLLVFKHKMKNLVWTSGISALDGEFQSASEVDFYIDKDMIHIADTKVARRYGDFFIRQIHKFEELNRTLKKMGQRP
UniProt Q14240: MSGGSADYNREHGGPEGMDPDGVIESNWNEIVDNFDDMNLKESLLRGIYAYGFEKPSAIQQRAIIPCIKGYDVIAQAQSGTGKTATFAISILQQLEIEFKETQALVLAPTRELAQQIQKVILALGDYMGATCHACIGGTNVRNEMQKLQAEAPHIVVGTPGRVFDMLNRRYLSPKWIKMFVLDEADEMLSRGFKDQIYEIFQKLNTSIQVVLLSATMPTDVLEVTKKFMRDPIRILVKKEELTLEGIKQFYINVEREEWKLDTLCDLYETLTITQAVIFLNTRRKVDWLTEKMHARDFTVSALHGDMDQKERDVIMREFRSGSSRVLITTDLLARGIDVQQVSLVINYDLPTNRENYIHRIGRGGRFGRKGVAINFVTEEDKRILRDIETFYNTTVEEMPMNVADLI
UniProt O43432: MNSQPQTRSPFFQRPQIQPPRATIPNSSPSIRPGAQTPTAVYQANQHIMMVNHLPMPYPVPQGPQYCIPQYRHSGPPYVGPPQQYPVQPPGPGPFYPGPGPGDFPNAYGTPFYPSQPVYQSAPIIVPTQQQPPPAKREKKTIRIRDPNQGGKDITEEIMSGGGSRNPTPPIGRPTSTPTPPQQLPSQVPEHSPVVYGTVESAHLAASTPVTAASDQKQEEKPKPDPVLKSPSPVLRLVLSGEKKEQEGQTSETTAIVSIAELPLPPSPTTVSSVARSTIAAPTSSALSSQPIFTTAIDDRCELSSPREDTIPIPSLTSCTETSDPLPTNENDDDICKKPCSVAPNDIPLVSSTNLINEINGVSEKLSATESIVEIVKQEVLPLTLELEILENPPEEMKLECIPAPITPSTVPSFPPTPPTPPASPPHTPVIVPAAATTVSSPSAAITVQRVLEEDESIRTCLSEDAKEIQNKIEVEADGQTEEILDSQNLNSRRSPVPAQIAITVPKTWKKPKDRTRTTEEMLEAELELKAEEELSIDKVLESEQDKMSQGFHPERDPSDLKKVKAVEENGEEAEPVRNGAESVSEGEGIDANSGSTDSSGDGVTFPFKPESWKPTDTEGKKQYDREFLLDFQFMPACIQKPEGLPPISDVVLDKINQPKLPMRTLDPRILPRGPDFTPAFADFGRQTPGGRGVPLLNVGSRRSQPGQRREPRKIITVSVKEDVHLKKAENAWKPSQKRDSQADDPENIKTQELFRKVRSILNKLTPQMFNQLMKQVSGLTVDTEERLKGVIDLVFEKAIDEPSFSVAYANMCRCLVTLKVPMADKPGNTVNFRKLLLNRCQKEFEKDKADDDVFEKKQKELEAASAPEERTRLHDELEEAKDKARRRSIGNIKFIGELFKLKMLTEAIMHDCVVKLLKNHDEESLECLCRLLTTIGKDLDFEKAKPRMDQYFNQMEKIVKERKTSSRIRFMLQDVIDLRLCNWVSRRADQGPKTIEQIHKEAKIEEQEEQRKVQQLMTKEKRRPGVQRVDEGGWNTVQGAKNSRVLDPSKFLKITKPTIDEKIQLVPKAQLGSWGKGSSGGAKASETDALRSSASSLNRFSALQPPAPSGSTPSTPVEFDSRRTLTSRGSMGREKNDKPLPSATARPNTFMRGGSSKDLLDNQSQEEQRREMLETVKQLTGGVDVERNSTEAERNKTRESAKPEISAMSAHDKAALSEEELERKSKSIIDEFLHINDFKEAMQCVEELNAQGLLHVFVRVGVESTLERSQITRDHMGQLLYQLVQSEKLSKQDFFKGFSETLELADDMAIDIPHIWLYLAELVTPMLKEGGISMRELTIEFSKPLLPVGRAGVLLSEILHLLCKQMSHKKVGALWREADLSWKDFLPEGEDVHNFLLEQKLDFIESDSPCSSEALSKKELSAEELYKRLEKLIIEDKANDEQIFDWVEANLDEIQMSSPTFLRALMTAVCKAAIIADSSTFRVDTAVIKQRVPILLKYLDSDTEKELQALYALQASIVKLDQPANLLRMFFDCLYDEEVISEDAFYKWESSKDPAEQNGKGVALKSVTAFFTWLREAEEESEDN

Results are given in words; binding and its absence hold for the method and conditions named. In cells and extracts the contact can be indirect. Here binding means that the protein was enriched with, or labelled near, the bait; the list need not be complete.

The target of the experiment is TAP-MNV VPg (murine norovirus (MNV)) (UniProt Q80J95). Kind of experiment: affinity purification with mass spectrometry; large scale tandem affinity purification of TAP-MNV VPg from induced 293 cells (CdCl2-inducible pMEP4 or tetracycline-inducible pcDNA4:TO, the latter with and without ribonuclease); SDS-PAGE, trypsin, mass spectrometry; proteins found with the TAP tag alone removed.

Take “eIF3 subunit B (from UniProt P55884 1-814)”: the binding result is on record as “binds”.
As for “eIF3 subunit C (from UniProt Q99613 1-913)”, the entry is “binds”; as for “eIF3 subunit D (from UniProt O15371 1-548)”, “binds”.
Consider “eIF3 subunit E (from UniProt P60228 1-445)”, for which the binding result is on record as “binds”.
In the case of “eIF3 subunit F (from UniProt O00303 1-357)”, the binding result is on record as “binds”.
For the substance “eIF3 subunit G (from UniProt O75821 1-320)”, the binding entry was “binds”.
In the case of “eIF3 subunit H (from UniProt O15372 1-352)”, the binding entry is “binds”.
As to “eIF3 subunit I (from UniProt Q13347 1-325)”, the binding entry is reported as “binds”.
For “eIF3 subunit K (from UniProt Q9UBQ5 1-218)”, the binding result is on record as “binds”.
As for “eIF3 subunit L (from UniProt Q9Y262 1-564)”, the entry is “binds”; as for eIF4AII (from UniProt Q14240 1-407), “binds”; as for eIF4GII (from UniProt O43432 1-1585), “binds”.
